# The list does not hold the whole screen: it is rich in T/C values a quarter to a half above the control, in often repeated tests (any T/C) and in doses without a T/C. Other doses and runs of a compound stand elsewhere. T/C is the treated group as % of the vehicle group. Some doses have a count of surviving animals in place of a T/C: the source holds a T/C of zero for them, seemingly a mark for toxic or unscored doses. Some survivor counts are full or nearly so, which does not show that the dose was tolerated: survival well below the control is almost never listed, so the zero probably covers shortened survival too. Survivors were counted at the toxicity check, usually on the fifth day, unless a day is given; later deaths do not show. Schedule codes are those of the source, read here as Q, the interval in days (D) or hours (H), X, the number of doses. Some entries were tested several times; the values are given in rising order. Marks such as (2×) stand for listed records that agree. Some schedules carry Z or #; the key to these is not given. For survival time, this PubChem deposit counts one and a half times the control or more as active, and values a quarter to a half above the control carry no call in these data; other NCI protocols may use other cut-offs.
# Tested on: L1210 leukemia ip in BDF1 mice, survival T/C
# Test: NCI In Vivo Anticancer Drug Screen. Data for tumor model L1210 Leukemia (intraperitoneal) in B6D2F1 (BDF1) mice
# Conditions: T/C endpoint: mean survival time, higher T/C = longer survival
# [1] = dose: 12.5 mg/kg/injection, schedule: Q01DX010 (ip), vehicle: water
# [2] = dose: 32.0 mg/kg/injection, schedule: Q01DX001 (oral), vehicle: saline
structure (smiles),measurement,setting,value
S=P(N1CC1)(N1CC1)N1CC1,survivor count,"dose: 0.5 mg/kg/injection, schedule: Q04DX002 (ip), vehicle: saline",1 of 1
same,T/C,"dose: 1.0 mg/kg/injection, schedule: Q01DX009 (ip), vehicle: saline",140 % of control
same,T/C,"dose: 1.5 mg/kg/injection, schedule: Q01DX009 (ip), vehicle: saline, evaluated on day 30","97, 110, 118, 120 % of control"
same,T/C,"dose: 1.5 mg/kg/injection, schedule: Q01DX009 (ip), vehicle: saline, evaluated on day 60",110 % of control
same,T/C,"dose: 1.57 mg/kg/injection, schedule: Q01DX010 (ip), vehicle: water","110 (2×), 122, 127 % of control"
same,T/C,"dose: 2.0 mg/kg/injection, schedule: Q01DX009 (ip), vehicle: saline",136 and 147 % of control
same,T/C,"dose: 3.0 mg/kg/injection, schedule: Q01DX009 (ip), vehicle: saline, evaluated on day 30","135, 137, 147, 148 % of control"
same,T/C,"dose: 3.0 mg/kg/injection, schedule: Q01DX009 (ip), vehicle: saline, evaluated on day 60",137 % of control
same,T/C,"dose: 3.13 mg/kg/injection, schedule: Q01DX009 (ip), vehicle: saline",135 and 141 % of control
same,T/C,"dose: 3.13 mg/kg/injection, schedule: Q01DX010 (ip), vehicle: water","129, 153, 166 % of control (2×)"
same,T/C,"dose: 4.0 mg/kg/injection, schedule: Q04DX002 (ip), vehicle: saline","115, 116, 117, 118 % of control"
same,T/C,"dose: 4.0 mg/kg/injection, schedule: Q04DX003 (ip), vehicle: saline",138 % of control
same,T/C,"dose: 4.8 mg/kg/injection, schedule: Q01DX Z (ip), vehicle: carboxymethylcellulose (CMC)",138 % of control
same,T/C,"dose: 6.0 mg/kg/injection, schedule: Q01DX009 (ip), vehicle: saline, evaluated on day 30","131, 150, 164, 201 % of control"
same,T/C,"dose: 6.0 mg/kg/injection, schedule: Q01DX009 (ip), vehicle: saline, evaluated on day 60",189 % of control
same,T/C,"dose: 6.0 mg/kg/injection, schedule: Q01DX010 (oral), vehicle: carboxymethylcellulose (CMC)",130 % of control
same,T/C,"dose: 6.0 mg/kg/injection, schedule: Q01DX Z (ip), vehicle: carboxymethylcellulose (CMC)",136 % of control
same,T/C,"dose: 6.25 mg/kg/injection, schedule: Q01DX009 (ip), vehicle: saline",147 % of control
same,T/C,"dose: 6.25 mg/kg/injection, schedule: Q01DX010 (ip), vehicle: water","100, 117, 127, 140 % of control"
same,T/C,"dose: 8.0 mg/kg/injection, schedule: Q01DX001 (ip), vehicle: saline, evaluated on day 30",124 and 130 % of control
same,T/C,"dose: 8.0 mg/kg/injection, schedule: Q01DX001 (ip), vehicle: saline, evaluated on day 60",107 % of control
same,T/C,"dose: 8.0 mg/kg/injection, schedule: Q01DX001 (ip), vehicle: saline, run until all animals had died",118 % of control
same,T/C,"dose: 8.0 mg/kg/injection, schedule: Q01DX009 (ip), vehicle: saline",146 % of control
same,T/C,"dose: 8.0 mg/kg/injection, schedule: Q04DX002 (ip), vehicle: saline","134, 136, 141, 148 % of control"
same,T/C,"dose: 10.0 mg/kg/injection, schedule: Q01DX001 (ip), vehicle: saline",134 % of control
same,survivor count,"dose: 10.0 mg/kg/injection, schedule: Q01DX Z (ip), vehicle: saline",6 of 6
same,T/C,"dose: 11.0 mg/kg/injection, schedule: Q01DX001 (ip), vehicle: saline",127 and 135 % of control
same,T/C,"dose: 12.0 mg/kg/injection, schedule: Q01DX001 (ip), vehicle: saline, evaluated on day 60",144 % of control
same,T/C,"dose: 12.0 mg/kg/injection, schedule: Q01DX001 (ip), vehicle: saline, run until all animals had died",135 % of control
same,T/C,[1],96 % of control
same,survivor count,[1],6 of 6
same,T/C,"dose: 13.3 mg/kg/injection, schedule: Q01DX001 (ip), vehicle: saline",144 % of control
same,T/C,"dose: 14.0 mg/kg/injection, schedule: Q01DX001 (ip), vehicle: saline",126 % of control
same,T/C,"dose: 16.0 mg/kg/injection, schedule: Q01DX001 (oral), vehicle: saline",136 % of control
same,survivor count,"dose: 16.0 mg/kg/injection, schedule: Q01DX009 (ip), vehicle: saline",9 of 10 and 6 of 6
same,T/C,"dose: 16.0 mg/kg/injection, schedule: Q04DX002 (ip), vehicle: saline","173, 175, 184, 205 % of control"
same,T/C,"dose: 16.0 mg/kg/injection, schedule: Q04DX003 (ip), vehicle: saline, evaluated on day 30",138 % of control
same,T/C,"dose: 16.0 mg/kg/injection, schedule: Q04DX003 (ip), vehicle: saline, evaluated on day 60",138 % of control
same,survivor count,"dose: 24.0 mg/kg/injection, schedule: Q01DX001 (ip), vehicle: saline",6 of 10
same,survivor count,"dose: 24.0 mg/kg/injection, schedule: Q01DX009 (ip), vehicle: saline",6 of 10
same,survivor count,"dose: 25.0 mg/kg/injection, schedule: Q01DX010 (ip), vehicle: water","0 of 6, 2 of 6, 3 of 6, 5 of 6"
same,survivor count,"dose: 32.0 mg/kg/injection, schedule: Q01DX001 (ip), vehicle: saline","1 of 6, 2 of 10, 3 of 6, 4 of 6, 7 of 10"
same,T/C,[2],132 % of control
same,survivor count,[2],6 of 10
same,survivor count,"dose: 32.0 mg/kg/injection, schedule: Q01DX009 (ip), vehicle: saline","6 of 10, 4 of 6, 10 of 10"
same,survivor count,"dose: 32.0 mg/kg/injection, schedule: Q04DX002 (ip), vehicle: saline",3 of 3
same,survivor count,"dose: 32.0 mg/kg/injection, schedule: Q04DX003 (ip), vehicle: saline","5 of 6, 9 of 10, 10 of 10"
same,survivor count,"dose: 48.0 mg/kg/injection, schedule: Q01DX001 (ip), vehicle: saline","1 of 6, 2 of 10, 5 of 6"
same,survivor count,"dose: 48.0 mg/kg/injection, schedule: Q01DX010 (oral), vehicle: carboxymethylcellulose (CMC)",5 of 6
same,survivor count,"dose: 50.0 mg/kg/injection, schedule: Q01DX001 (ip), vehicle: saline",6 of 6
same,survivor count,"dose: 64.0 mg/kg/injection, schedule: Q01DX001 (ip), vehicle: saline",2 of 10 (2×) and 4 of 6
same,survivor count,"dose: 64.0 mg/kg/injection, schedule: Q01DX001 (oral), vehicle: saline",1 of 10
same,survivor count,"dose: 64.0 mg/kg/injection, schedule: Q01DX009 (ip), vehicle: saline","6 of 10, 5 of 6, 10 of 10"

# Source: PubChem BioAssay AID248 (DTP/NCI, 2004)
